Measurements: article PMC11062913
Results are given in words; binding and its absence hold for the method and conditions named. A result given as binding can be weak or reduced; the word gives no strength.

Target: Integrator subunit INTS3 (human) (UniProt Q68E01)
Assay: cryo-EM structure; post-termination complex (Integrator–PP2A–SOSS–CTD), a class of particles from the PEC–Integrator–PP2A–SOSS sample; glycerol-gradient peak cross-linked with 0.2% glutaraldehyde; 3.7 Å; both purified

B1: INIP (protein, UniProt Q9NRY2-1 1-104)
chain: MAANSSGQGFQNKNRVAILAELDKEKRKLLMQNQSSTNHPGASIALSRPSLNKDFRDHAEQQHIAAQQKAALQHAHAHSSGYFITQDSAFGNLILPVLPRLDPE
binding: binds
